Data from paper PMC6456494.
No constants are given. Whether binding was seen depends on the method and setting. Binding seen in cells or lysates may run through a third protein. Some results given as binding are weak or reduced against the parent protein; the word gives no strength. Tags and fused reporters may be left off the sequences shown.

Chains of the proteins cited; added tags and fusions are not shown.
UniProt Q5SXA9: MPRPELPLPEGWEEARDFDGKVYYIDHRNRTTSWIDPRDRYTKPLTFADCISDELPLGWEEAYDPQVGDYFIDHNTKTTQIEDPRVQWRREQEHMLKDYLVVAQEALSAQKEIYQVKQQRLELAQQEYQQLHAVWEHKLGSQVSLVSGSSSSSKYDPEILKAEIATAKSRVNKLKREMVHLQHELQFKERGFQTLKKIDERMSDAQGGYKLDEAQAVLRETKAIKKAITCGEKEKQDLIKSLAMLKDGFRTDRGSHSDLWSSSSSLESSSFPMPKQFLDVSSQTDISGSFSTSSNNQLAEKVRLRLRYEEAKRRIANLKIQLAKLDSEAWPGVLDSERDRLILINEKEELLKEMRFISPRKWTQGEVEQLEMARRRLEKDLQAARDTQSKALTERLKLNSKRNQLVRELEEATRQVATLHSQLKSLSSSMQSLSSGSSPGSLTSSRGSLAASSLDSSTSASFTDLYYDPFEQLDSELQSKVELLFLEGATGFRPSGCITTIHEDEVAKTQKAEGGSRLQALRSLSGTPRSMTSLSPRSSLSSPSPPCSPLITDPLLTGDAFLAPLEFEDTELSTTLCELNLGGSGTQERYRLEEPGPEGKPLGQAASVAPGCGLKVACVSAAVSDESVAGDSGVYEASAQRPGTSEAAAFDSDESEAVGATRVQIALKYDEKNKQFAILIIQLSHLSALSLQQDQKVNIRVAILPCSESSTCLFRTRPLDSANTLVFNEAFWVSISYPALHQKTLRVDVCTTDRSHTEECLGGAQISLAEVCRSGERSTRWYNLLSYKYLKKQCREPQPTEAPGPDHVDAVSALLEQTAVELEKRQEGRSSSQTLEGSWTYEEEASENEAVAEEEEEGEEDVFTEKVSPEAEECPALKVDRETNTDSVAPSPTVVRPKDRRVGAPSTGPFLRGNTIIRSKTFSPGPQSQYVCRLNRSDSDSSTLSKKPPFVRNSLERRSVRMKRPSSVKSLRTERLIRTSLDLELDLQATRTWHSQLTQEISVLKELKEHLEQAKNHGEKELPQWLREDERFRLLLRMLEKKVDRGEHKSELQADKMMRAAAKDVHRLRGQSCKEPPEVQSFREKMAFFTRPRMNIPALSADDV

T1: DsRed-tagged Rab27a (mouse) (UniProt Q9ERI2)
T1 sequence: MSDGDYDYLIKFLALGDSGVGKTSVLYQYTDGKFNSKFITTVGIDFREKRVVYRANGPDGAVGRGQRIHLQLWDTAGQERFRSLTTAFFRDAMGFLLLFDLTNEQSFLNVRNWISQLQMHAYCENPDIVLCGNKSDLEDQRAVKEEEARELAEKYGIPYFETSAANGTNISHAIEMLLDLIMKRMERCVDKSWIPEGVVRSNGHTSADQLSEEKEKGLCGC


What was measured:
[1] = molecular target: T1, DsRed-tagged Rab27a (mouse); assay: co-IP; 293T cells cotransfected with GFP-KIBRA and DsRed-Rab27a, lysed 48 h after transfection (25 mM Tris, 150 mM NaCl, 1 mM EDTA, 1% NP-40, 5% glycerinum, pH 7.4); Pierce Co-IP kit; IP with anti-KIBRA or anti-Rab27a antibody or normal IgG, blotted in a crossed manner
[2] = molecular target: GFP-tagged KIBRA (mouse) (UniProt Q5SXA9); assay: as above

| Molecule | binding [1] | binding [2] |
| --- | --- | --- |
| GFP-tagged KIBRA (from UniProt Q5SXA9 1-1104) | binds | – |
| DsRed-tagged Rab27a (protein, UniProt Q9ERI2 1-221) MSDGDYDYLIKFLALGDSGVGKTSVLYQYTDGKFNSKFITTVGIDFREKRVVYRANGPDGAVGRGQRIHLQLWDTAGQERFRSLTTAFFRDAMGFLLLFDLTNEQSFLNVRNWISQLQMHAYCENPDIVLCGNKSDLEDQRAVKEEEARELAEKYGIPYFETSAANGTNISHAIEMLLDLIMKRMERCVDKSWIPEGVVRSNGHTSADQLSEEKEKGLCGC | – | binds |
